These are yes or no findings as the source states them, for the method shown. Binding seen in cells or lysates may run through a third protein. Some results given as binding are weak or reduced against the parent protein; the word gives no strength.
Molecular target: HA-epitope tagged JMJD3 (UniProt O15054)
Test: co-IP; anti-HA immunoprecipitation (isotype IgG control) from whole extracts of HEK 293T cells transfected with HA-JMJD3; TNGT buffer, magnetic beads, overnight at 4°C; extracts treated or not with 40 U/ml RNaseH and 25 U/ml DNaseI for 1 h at 37°C; western blot

Chains of the proteins cited; added tags and fusions are not shown.
UniProt O15054: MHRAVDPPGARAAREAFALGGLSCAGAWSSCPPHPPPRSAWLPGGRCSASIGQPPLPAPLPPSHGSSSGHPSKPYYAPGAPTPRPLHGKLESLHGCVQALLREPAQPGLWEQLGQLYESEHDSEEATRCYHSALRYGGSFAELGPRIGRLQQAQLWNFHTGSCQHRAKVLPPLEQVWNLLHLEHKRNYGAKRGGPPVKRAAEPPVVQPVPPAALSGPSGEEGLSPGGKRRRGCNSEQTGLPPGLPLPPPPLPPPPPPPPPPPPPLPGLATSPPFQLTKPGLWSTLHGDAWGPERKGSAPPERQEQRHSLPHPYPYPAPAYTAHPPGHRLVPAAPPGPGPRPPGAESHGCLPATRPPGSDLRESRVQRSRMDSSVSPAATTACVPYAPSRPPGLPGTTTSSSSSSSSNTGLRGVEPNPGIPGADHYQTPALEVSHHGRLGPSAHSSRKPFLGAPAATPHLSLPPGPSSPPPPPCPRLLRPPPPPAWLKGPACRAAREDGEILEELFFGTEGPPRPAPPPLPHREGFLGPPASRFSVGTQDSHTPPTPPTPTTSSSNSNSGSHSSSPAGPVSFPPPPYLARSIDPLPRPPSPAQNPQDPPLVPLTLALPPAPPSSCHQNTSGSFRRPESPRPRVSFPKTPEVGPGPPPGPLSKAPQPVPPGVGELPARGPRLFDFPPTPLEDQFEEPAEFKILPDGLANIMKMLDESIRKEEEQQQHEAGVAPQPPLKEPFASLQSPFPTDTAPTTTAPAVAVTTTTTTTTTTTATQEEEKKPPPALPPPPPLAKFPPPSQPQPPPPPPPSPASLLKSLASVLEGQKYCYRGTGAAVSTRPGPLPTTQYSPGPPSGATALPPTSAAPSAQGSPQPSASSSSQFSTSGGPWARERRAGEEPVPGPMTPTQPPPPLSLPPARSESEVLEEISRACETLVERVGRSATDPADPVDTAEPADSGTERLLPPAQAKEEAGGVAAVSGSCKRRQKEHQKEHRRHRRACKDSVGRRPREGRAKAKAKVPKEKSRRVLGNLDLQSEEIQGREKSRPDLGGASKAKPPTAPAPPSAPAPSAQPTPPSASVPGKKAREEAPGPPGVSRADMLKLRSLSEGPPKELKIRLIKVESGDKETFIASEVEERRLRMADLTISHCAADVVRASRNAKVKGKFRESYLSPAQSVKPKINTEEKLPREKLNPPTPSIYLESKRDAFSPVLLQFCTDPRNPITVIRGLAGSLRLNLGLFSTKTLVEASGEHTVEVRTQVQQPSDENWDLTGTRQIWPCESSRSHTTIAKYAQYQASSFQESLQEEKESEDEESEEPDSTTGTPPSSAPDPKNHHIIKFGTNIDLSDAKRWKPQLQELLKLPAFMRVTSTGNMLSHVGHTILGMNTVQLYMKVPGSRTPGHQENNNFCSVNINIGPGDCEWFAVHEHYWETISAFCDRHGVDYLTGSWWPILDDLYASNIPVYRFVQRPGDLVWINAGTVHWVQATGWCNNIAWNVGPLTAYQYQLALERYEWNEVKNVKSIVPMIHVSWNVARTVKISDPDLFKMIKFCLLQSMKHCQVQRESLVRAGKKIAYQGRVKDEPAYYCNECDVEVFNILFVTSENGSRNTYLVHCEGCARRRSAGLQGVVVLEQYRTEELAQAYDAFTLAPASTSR

B1: DDX21 (enzyme, UniProt Q9NR30 1-783)
chain: MPGKLRSDAGLESDTAMKKGETLRKQTEEKEKKEKPKSDKTEEIAEEEETVFPKAKQVKKKAEPSEVDMNSPKSKKAKKKEEPSQNDISPKTKSLRKKKEPIEKKVVSSKTKKVTKNEEPSEEEIDAPKPKKMKKEKEMNGETREKSPKLKNGFPHPEPDCNPSEAASEESNSEIEQEIPVEQKEGAFSNFPISEETIKLLKGRGVTFLFPIQAKTFHHVYSGKDLIAQARTGTGKTFSFAIPLIEKLHGELQDRKRGRAPQVLVLAPTRELANQVSKDFSDITKKLSVACFYGGTPYGGQFERMRNGIDILVGTPGRIKDHIQNGKLDLTKLKHVVLDEVDQMLDMGFADQVEEILSVAYKKDSEDNPQTLLFSATCPHWVFNVAKKYMKSTYEQVDLIGKKTQKTAITVEHLAIKCHWTQRAAVIGDVIRVYSGHQGRTIIFCETKKEAQELSQNSAIKQDAQSLHGDIPQKQREITLKGFRNGSFGVLVATNVAARGLDIPEVDLVIQSSPPKDVESYIHRSGRTGRAGRTGVCICFYQHKEEYQLVQVEQKAGIKFKRIGVPSATEIIKASSKDAIRLLDSVPPTAISHFKQSAEKLIEEKGAVEALAAALAHISGATSVDQRSLINSNVGFVTMILQCSIEMPNISYAWKELKEQLGEEIDSKVKGMVFLKGKLGVCFDVPTASVTEIQEKWHDSRRWQLSVATEQPELEGPREGYGGFRGQREGSRGFRGQRDGNRRFRGQREGSRGPRGQRSGGGNKSNRSQNKGQKRSFSKAFGQ
binding: binds

Source: publication PMC6895255
